Results published in publication PMC8479480.
Results are given in words; binding and its absence hold for the method and conditions named. In cells and extracts the contact can be indirect. Some entries that bind do so weakly or less than the wild type.

Chains of the proteins cited; added tags and fusions are not shown. Residues count along the entry.
UniProt P35951, residues 22-862: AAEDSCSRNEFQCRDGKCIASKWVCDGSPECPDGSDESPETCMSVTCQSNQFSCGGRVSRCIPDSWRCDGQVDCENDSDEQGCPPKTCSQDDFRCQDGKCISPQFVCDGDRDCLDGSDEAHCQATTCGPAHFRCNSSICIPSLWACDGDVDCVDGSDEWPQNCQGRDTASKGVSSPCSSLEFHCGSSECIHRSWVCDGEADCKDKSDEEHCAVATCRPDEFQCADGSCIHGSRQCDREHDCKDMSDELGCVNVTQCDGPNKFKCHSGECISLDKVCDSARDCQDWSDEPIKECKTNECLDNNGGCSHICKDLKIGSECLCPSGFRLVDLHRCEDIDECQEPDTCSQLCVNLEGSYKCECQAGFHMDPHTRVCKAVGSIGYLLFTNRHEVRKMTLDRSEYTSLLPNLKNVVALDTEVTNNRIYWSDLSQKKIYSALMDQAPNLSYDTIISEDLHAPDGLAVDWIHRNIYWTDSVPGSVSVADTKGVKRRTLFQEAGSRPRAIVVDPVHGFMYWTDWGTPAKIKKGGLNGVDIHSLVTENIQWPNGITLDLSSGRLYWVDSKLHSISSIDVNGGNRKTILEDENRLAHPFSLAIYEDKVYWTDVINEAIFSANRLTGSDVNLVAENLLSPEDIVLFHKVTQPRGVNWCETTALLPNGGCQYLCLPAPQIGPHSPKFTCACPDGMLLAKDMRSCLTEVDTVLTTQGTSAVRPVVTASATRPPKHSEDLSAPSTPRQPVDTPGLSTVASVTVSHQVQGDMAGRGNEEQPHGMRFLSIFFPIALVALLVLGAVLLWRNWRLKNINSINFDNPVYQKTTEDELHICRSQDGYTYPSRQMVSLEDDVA

Target: T1, ASGR1, endogenous mouse liver (mouse (endogenous in liver)) (UniProt P34927)
T1 sequence: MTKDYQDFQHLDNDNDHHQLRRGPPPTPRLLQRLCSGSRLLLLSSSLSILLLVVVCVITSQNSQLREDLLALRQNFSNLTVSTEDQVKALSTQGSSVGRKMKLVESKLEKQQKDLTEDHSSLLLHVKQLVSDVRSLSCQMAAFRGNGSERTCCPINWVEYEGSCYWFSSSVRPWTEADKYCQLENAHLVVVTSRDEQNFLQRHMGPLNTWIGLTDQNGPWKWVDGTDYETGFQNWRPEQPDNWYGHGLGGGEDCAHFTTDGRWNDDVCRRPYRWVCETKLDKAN
Test: co-IP; endogenous proteins; liver lysates of WT and Pcsk9-KO mice (1 mg total protein, Pierce nondenaturing IP buffer) with 2 μg rabbit anti-ASGR1 antibody overnight at 4 °C, Protein G magnetic beads; Western blot for LDLR and ASGR1

LDLR, endogenous mouse liver (from UniProt P35951 22-862) (receptor)
binding: binds
